Values of other authors in patent US20060079538A1, “Methods for inhibiting angiogenesis” (priority 2004, published 2006).
Read-outs that look alike come from different tables or passages of the source. At least one structure is not confirmed: it was looked up by name or label, or the drawing left a doubt.

Tested on: class I PI3Ks
Settings: each class I PI3K

Compound | IC50 (read-out: IC50 values against each of the various class I PI3Ks) [nM] | IC50 (read-out: IC50 values against each of these PI3Ks) [nM]
COC[C@H]1OC(=O)c2coc3c2[C@@]1(C)C1=C(C3=O)[C@@H]2CCC(=O)[C@@]2(C)C[C@H]1OC(C)=O [wortmannin] | 1 to 10 | –
O=c1cc(N2CCOCC2)oc2c(-c3ccccc3)cccc12 [LY294002] | – | ~1000
